These results are taken from article PMC8773821.

Amino acid sequences for entries named in this document (tags omitted).
UniProt P19474: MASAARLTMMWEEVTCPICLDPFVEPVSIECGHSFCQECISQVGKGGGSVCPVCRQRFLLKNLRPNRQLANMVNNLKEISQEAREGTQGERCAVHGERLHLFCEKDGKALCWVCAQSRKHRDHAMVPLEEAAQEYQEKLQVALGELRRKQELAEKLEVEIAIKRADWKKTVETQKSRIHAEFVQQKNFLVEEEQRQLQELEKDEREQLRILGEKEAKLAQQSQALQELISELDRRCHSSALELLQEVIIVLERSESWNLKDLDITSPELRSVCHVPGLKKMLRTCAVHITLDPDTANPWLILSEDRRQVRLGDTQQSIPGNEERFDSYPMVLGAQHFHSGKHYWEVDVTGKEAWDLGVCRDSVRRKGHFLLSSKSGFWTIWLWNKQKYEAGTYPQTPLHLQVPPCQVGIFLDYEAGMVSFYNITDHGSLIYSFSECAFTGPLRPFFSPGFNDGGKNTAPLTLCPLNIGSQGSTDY

This assay has as its target T1, pregnane X receptor (PXR), full-length, from the plasmid pcDNA3.1-EGFP-PXR-Flag (human) (UniProt O75469).
T1 sequence: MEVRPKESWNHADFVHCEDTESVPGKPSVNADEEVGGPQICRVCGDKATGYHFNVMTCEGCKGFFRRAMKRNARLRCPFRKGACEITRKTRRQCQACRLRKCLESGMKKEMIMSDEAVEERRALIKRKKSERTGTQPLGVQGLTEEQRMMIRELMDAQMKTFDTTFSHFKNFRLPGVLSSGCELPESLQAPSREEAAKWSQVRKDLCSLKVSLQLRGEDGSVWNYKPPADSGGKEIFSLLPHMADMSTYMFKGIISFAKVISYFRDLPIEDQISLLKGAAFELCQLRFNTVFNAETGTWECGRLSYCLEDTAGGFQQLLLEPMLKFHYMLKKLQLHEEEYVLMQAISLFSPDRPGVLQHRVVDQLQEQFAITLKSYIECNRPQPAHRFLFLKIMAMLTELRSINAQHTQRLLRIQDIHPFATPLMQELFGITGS
The experiment in a line: co-IP; HEK 293T cells cotransfected with PXR and TRIM21 for 48 h; whole-cell lysates in RIPA with PMSF; precipitated on agarose beads with anti-Flag (the legend says PXR antibody), anti-TRIM21 or IgG; blotted with anti-PXR or anti-TRIM21.

No constants are given. Whether binding was seen depends on the method and setting. Binding seen in cells or lysates may run through a third protein. Some binding calls cover weakened binding; strength is not graded here. Tags and fused reporters may be left off the sequences shown.

Consider “tripartite motif containing 21 (TRIM21), full-length (from UniProt P19474 1-475) (enzyme)”, for which the binding result is recorded as “binds”.
